No constants are given. Whether binding was seen depends on the method and setting. In cells and extracts the contact can be indirect. Some results given as binding are weak or reduced against the parent protein; the word gives no strength.
Target: EphA2 (UniProt Q03145)
Assay: co-IP; Exo group compared with Exo+EphA2 group (exosomes from MC3T3-E1 cells with or without EphA2 overexpression); done both ways (EphA2-EphrinA2 and EphrinA2-EphA2); no co-IP protocol in the methods

Sequences of proteins named here, by UniProt entry; tags and fusion partners are left off. Residues count along the entry.
UniProt Q03145, residues 26-977: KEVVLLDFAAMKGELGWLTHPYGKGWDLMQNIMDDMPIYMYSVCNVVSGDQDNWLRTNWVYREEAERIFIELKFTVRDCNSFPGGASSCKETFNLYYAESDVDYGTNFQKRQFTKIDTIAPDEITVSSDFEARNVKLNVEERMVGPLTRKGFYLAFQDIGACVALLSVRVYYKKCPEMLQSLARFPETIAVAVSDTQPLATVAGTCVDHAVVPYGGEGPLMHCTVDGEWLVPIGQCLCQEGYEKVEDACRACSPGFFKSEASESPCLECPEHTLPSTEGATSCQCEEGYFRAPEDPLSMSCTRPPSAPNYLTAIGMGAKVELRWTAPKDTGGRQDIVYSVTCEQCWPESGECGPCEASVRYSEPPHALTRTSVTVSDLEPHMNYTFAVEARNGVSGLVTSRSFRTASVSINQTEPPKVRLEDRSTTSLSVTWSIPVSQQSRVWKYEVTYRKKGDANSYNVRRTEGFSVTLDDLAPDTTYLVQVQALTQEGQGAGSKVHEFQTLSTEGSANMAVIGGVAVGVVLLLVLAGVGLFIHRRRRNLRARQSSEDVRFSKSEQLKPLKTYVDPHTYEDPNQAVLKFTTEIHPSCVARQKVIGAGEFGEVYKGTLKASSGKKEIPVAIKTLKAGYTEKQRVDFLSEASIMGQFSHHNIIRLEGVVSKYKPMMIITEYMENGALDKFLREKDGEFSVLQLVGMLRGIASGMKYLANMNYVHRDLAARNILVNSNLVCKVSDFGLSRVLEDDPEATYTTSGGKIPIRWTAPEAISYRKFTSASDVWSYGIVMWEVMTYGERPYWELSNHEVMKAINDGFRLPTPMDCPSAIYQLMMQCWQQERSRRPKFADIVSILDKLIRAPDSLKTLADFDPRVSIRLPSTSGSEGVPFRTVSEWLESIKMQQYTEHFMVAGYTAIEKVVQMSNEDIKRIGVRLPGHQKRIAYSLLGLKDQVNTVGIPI

- binding: binds
B1: EphrinA2 (ligand, UniProt P52801 21-184)
chain: RNEDPARANADRYAVYWNRSNPRFQVSAVGDGGGYTVEVSINDYLDIYCPHYGAPLPPAERMERYILYMVNGEGHASCDHRQRGFKRWECNRPAAPGGPLKFSEKFQLFTPFSLGFEFRPGHEYYYISATPPNLVDRPCLRLKVYVRPTNETLYEAPEPIFTSN

From paper PMC10643436
